Results from article PMC5965893.
These are yes or no findings as the source states them, for the method shown. Binding seen in cells or lysates may run through a third protein. For part of these data: A result given as binding can be weak or reduced; the word gives no strength. For part of these data: Sequences can lack the tags named with a protein.

Legend:
[1] = biological target: full-length TrkC tagged with GFP (TrkC-FL-GFP); experiment: co-IP; transfected HEK293T cells lysed in 50 mM HEPES pH 7.6, 125 mM NaCl, 5 mM EDTA, 0.1% NP-40; immunoprecipitation with anti-GFP and protein G sepharose; western blot with anti-Flag
TrkC-642-825-GFP = experiment: proximity ligation; DuoLink PLA on SHEP cells fixed in 4% PFA and permeabilised; pairs of primary antibodies (anti-GFP or anti-Flag for the TrkC constructs; pan-importin, anti-Hey1 or anti-MDM2 for endogenous proteins); red spots counted per cell

binding [1]	binding (TrkC-642-825-GFP)	Binder
no binding	–	HeyL-Flag (protein, UniProt Q9DBX7 1-326) MKRPRAPSGSDGESDGPIDVGQENDLSQMARPLTTPSPSQMQARKKRRGIIEKRRRDRINSSLSELRRLVPTAFEKQGSSKLEKAEVLQMTVDHLKMLHASGGTGFFDARALAVDFRSIGFRECLTEVIRYLGVLEGPSSHADPVRIRLLSHLKSYAAEMEPSPTTTSALAFPVWPWSFLHSCPGLPSLNSQLAILGRVPGPVLPSISSPPYPISALRSAPVHRPAGTIPPTRRNLLPSRGVTSTQRAHLPERPAAPPPTALDARAARSIVPIPPCSPTTAPGAGKSDDNVSGSISSPCPSGPTGRPAGAVFYHSWVSEITEIGAF
–	no binding	endogenous Hey1 (protein, UniProt Q9Y5J3 1-304) MKRAHPEYSSSDSELDETIEVEKESADENGNLSSALGSMSPTTSSQILARKRRRGIIEKRRRDRINNSLSELRRLVPSAFEKQGSAKLEKAEILQMTVDHLKMLHTAGGKGYFDAHALAMDYRSLGFRECLAEVARYLSIIEGLDASDPLRVRLVSHLNNYASQREAASGAHAGLGHIPWGTVFGHHPHIAHPLLLPQNGHGNAGTTASPTEPHHQGRLGSAHPEAPALRAPPSGSLGPVLPVVTSASKLSPPLLSSVASLSAFPFSFGSFHLLSPNALSPSAPTQAANLGKPYRPWGTEIGAF
binds	–	Hey1-Flag (protein, UniProt Q9WV93 1-299) MKRAHPDYSSSDSELDETIEVEKESADENGNLSSALCSMSPTTSSQVLARKRRRGIIEKRRRDRINNSLSELRRLVPSAFEKQGSAKLEKAEILQMTVDHLKMLHTAGGKGYFDAHALAMDYRSLGFRECLAEVARYLSIIEGLDASDPLLVRLVSHLNNYASQREAASGAHGGLGHIPWGSAFGHHPHIAHPLLLPQNGHGNAGTAASPTEPHHQGRLASAHPEAPALRAPPSGGLGPVLPVVTSASKLSPPLLSSVASLSAFPFSFSSFHLLSPSTPTQAANLGKPYRPWGTEIGAF
